Experimental findings from PubChem BioAssay AID493027 (The Scripps Research Institute Molecular Screening Center, 2011) are described below.

Chains of the proteins cited; added tags and fusions are not shown. Lines headed by an entry give the natural chain unless they say otherwise; changes in a name come on top.
UniProt O60240: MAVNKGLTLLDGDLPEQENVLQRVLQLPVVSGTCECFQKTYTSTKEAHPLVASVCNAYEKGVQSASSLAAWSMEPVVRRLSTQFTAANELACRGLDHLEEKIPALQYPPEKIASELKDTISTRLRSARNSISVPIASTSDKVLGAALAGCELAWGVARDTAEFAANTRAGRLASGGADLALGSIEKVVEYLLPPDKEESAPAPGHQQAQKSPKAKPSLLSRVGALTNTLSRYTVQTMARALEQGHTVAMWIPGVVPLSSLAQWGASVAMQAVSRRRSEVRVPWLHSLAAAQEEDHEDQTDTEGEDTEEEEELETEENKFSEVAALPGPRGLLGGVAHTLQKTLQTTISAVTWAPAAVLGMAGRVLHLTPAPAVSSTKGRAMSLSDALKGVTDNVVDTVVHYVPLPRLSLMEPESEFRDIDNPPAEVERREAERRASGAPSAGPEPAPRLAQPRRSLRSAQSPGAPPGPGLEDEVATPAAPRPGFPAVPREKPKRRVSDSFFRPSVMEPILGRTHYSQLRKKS
UniProt Q8WTS1: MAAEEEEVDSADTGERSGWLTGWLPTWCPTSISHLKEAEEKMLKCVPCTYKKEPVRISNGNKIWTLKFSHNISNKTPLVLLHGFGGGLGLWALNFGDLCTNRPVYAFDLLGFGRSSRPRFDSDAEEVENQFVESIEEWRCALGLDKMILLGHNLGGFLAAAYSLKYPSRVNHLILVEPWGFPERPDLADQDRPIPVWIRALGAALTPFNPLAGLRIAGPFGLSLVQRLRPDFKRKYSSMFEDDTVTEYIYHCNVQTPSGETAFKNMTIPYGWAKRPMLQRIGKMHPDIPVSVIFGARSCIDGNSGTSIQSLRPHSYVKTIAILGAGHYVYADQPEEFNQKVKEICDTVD

Several values for one entry are separate records, joined by “and”; a condition that tells them apart may be missing. Equal values may be shown once. The campaign covered roughly 2,000 compounds. About 45 (2%) were called active.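 How the source made its calls: active means inhibition above the screen-wide mean inhibition plus 3 SD (cut at about 44% in these data); inactive means the rest.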 The list shows a part of the results.

The test deals with Perilipin-1 (Homo sapiens) + 1-acylglycerol-3-phosphate O-acyltransferase ABHD5 (Homo sapiens) (UniProt O60240+Q8WTS1). Nature of the test: ABHD5-PLIN1 interaction inhibitors, pilot screen, cell lysate, split luciferase complementation, luminescence, NIH validation set (AID 493027).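 Further: 0% = DMSO wells with the 100% control not disclosed.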 To be noted: split G. princeps luciferase complementation, 4 h; at 7.9 µM, hits give high values.
As a reminder, the inhibition is the relative decrease from the control value, in per cent. With `CCN(CC)CCOC(=O)C1(C2CCCCC2)CCCCC1`, the inhibition was inactive: -12.7%.

As for `COc1ccc(OC)c(-c2oc3ccccc3c(=O)c2O)c1`, the inhibition was inactive: -12.2%. The value for `Cc1nc2ccccc2c(=O)n1N` was inactive: -10.4%; that for `Cc1cccc(N2C(=O)C3C(c4ccccc4)OC4(C(=O)c5ccccc5C4=O)C3C2=O)c1` (centres undefined) was inactive: 10.6%; that for `CN1CCN(C2=Nc3ccccc3Oc3ccc(Cl)cc32)CC1` was inactive: -8.87%.

For the molecule `O=C1C(O)CC2c3ccccc3CC3(CCCC3)N12` (centres undefined), the inhibition is inactive: -0.58%.

As to `COc1ccccc1N1C(=O)C2CC(C)=C(C)CC2C1=O` (centres undefined), the inhibition is inactive: -6.79%. With `CCCCCCCCCC(=O)OCC(O)CO` (centres undefined), the inhibition is inactive: 0.88%.

With `O=C1N=c2ccccc2=C1c1[nH]c(=S)[nH]c1O`, the inhibition was inactive: -9.29%.

On to `O=C(/C=C/c1ccc(F)cc1)N1CC[C@@]2(O)CCCC[C@H]2C1`, for which the inhibition was inactive: -4.91%. The value for `O=C(O)Cc1ccc(-c2ccccc2)cc1` was inactive: 2.1%; that for `CCOC(=O)C1=C2c3ccc4ccccc4c3CC(C)(C)N2C(=O)C1=O` was inactive: 8.12%. `C[C@@H]1C[C@H]2[C@@H]3C[C@H](F)C4=CC(=O)C=C[C@]4(C)[C@@]3(F)[C@@H](O)C[C@]2(C)[C@@]1(O)C(=O)CO`: the inhibition was inactive: -5.01%.

`CC(C)(C)C(=O)Nc1cccc(OC(F)(F)C(F)Cl)c1` (centres undefined): the inhibition was inactive: -7.9%. Regarding `O=C(O)CCSc1nc2ccccc2s1`, the inhibition is inactive: 0.7%. With `COCCCC/C(=N\OCCN)c1ccc(C(F)(F)F)cc1`, the inhibition is inactive: -0.43%. As for `C[C@]12CCC(=O)C=C1CC[C@@H]1[C@@H]2C(=O)C[C@@]2(C)[C@H]1CC[C@]2(O)C(=O)CO`, the inhibition was inactive: -6.41%. In the case of `CC1CCN(C(=O)Oc2ccccc2)CC1`, the inhibition was inactive: -1.86%. With `Cc1ccc2[nH]c(=O)c(Cc3ccccc3)c(O)c2c1`, the inhibition is inactive: -11.7%. Consider `CCOC(=O)N1CCC(=C2c3ccc(Cl)cc3CCc3cccnc32)CC1`, for which the inhibition is inactive: 19.3%. Consider `NC(=O)c1ccccc1O`, for which the inhibition is inactive: 2.65%. With `N/C(=N\OS(=O)(=O)c1ccc2ccccc2c1)c1cccnc1`, the inhibition is inactive: 0.01%.

Turning to `CSCC[C@H](NC(=O)Nc1ccc(C)cc1C)C(=O)O`, the inhibition was inactive: -8.71%. With `O=C(CN1C(=O)/C(=C/c2cccc(Br)c2)SC1=S)Nc1cccnc1` the figure was inactive: 37.2%; with `CC(C)=CC/C=C1\CCC(C(=O)O)C(C(=O)O)C1` (centres undefined), inactive: -1.23%; with `CCc1cc(=O)oc2cc(OCC=C(C)C)ccc12`, inactive: -8.55%. Turning to `Clc1ccc2c(c1)C(N1CCNCC1)=Nc1ccccc1O2`, the inhibition was inactive: -11.5%. For the molecule `O=C1c2ccccc2C(=O)C1c1ccccc1`, the inhibition is inactive: -6.84%. The value for `CN(C)c1ccc(O)c2c1CC1CC3[C@@H](N(C)C)C(=O)C(C(N)=O)=C(O)[C@]3(O)C(=O)C1=C2O` (some centres undefined) was inactive: 1.5%. In the case of `O=C(O)C1Cc2ccccc2CN1S(=O)(=O)c1ccccc1` (centres undefined), the inhibition is inactive: -0.86%. With `CC(=O)OCC(=O)[C@H]1CC[C@H]2[C@@H]3CC=C4C[C@@H](O)CC[C@]4(C)[C@H]3CC[C@]12C`, the inhibition is inactive: -3.35%.

With `CCOC(=O)C(=O)N1CCN(c2ccccc2OC)CC1`, the inhibition was inactive: -5.23%. The value for `CC(C)(Oc1ccc(CCNC(=O)c2ccc(Cl)cc2)cc1)C(=O)O` was inactive: -1.93%; that for `OCCN1CCN(CCCN2c3ccccc3Sc3ccc(C(F)(F)F)cc32)CC1` was inactive: 10.8%.

Take `O=C(NC1CCCCC1)N1CCc2[nH]c3ccccc3c2C1`: the inhibition was inactive: -1.39%.

Regarding `O=C(Nc1ccc(C(=O)NC2CCCCC2)cc1)c1cccnc1`, the inhibition is inactive: -8%. Take `c1ccc(CC2=NCCN2)cc1`: the inhibition is inactive: 3.29%. For `COc1ccc(C=NCC2COc3ccccc3O2)cc1OC` (centres undefined), the inhibition is inactive: 0.36%. As to `N#Cc1cc2c([nH]c1=O)CCCC2`, the inhibition was inactive: -6.8%. With `COc1ccc(N2CCN(C(=S)NCc3ccccc3)CC2)cc1` the figure was inactive: 5.66%.

For the molecule `Cn1c(=O)[nH]c(=O)c2c1ncn2CCN1CCOCC1`, the inhibition is inactive: -2.02%. Regarding `O=C(NCCO)c1ccc(Cl)c(Cl)c1`, the inhibition is inactive: -11.6%. With `COc1ccccc1C1(CC(=O)N2CCCCC2)CCOC(C(C)C)C1` (centres undefined) the figure was inactive: -7.12%; with `O=C(CN1CCN(Cc2ccccc2)CC1)N1CCCc2c1c(=O)oc1ccc(O)cc21`, inactive: 14.9%. With `O=Cc1ccc(OC(=O)c2cccnc2)cc1`, the inhibition was inactive: -5.64%. With `Cc1ccc(N(CC2=NCCN2)c2cccc(O)c2)cc1` the figure was inactive: -4.49% and inactive: -5.95% and inactive: -7.49%. The value for `O=C1OC(c2ccc(O)cc2)(c2ccc(O)cc2)c2ccccc21` was inactive: 22.7%; that for `COCC1CCCN(Cc2cn[nH]c2-c2cc3ccccc3o2)C1` (centres undefined) was inactive: -8.66%. As for `CCOc1cc(C=O)ccc1OCCSc1ccc(C)cc1`, the inhibition is inactive: -8.51%. Take `CCOC(=O)c1cc2cc3ccccc3cc2[nH]1`: the inhibition is inactive: 0.41%. Take `CC(C)(CO)CNC(=O)CC1C(=O)NCCN1CC(c1ccccc1)c1ccccc1` (centres undefined): the inhibition is inactive: 1.59%. `COc1ccc(CNC(=O)C2CCN(C(=O)[C@@H](CC(C)C)NC(=O)OC(C)(C)C)CC2)cc1`: the inhibition is inactive: -8.53%. Consider `COc1ccc(CN(CCC(c2ccc(F)cc2)C2CCOC(C)(C)C2)C(=O)c2ccco2)cc1` (centres undefined), for which the inhibition was inactive: 23.5%.

As to `CCOc1ccc(C(=O)C(C)=O)c(OCC)c1`, the inhibition was inactive: 0.4%. With `COc1ccc(CCCC(=O)O)c(C)c1` the figure was inactive: -5.11%; with `Clc1ccc(CCNc2ncnc3nc[nH]c23)cc1`, inactive: -1.68%; with `CC(C)C(=O)Nc1cccnc1`, inactive: 1.55%. For `C/C=C/Cn1c(SC)nc2c1c(=O)[nH]c(=O)n2C`, the inhibition was inactive: -18.6%.

`c1ccc2c(c1)CCCC2C1=NCCN1` (centres undefined): the inhibition is inactive: 2.18%. `CCCCN1C[C@H](O)[C@@H](O)[C@H](O)[C@H]1CO`: the inhibition was inactive: -9.78%. The value for `COC(=O)c1ccccc1NC(=O)NCc1ccccc1` was inactive: -7.32%.

Take `O=C(NCCc1ccccc1)C1CCN(C2CCN(Cc3ccco3)CC2)CC1`: the inhibition is inactive: 6.8%.

Regarding `CCC(C)NCCOc1ccc(C(C)(C)c2ccccc2)cc1` (centres undefined), the inhibition is inactive: -11.5%.

For `Nc1ccc(S(=O)(=O)NC(=O)c2ccccc2)cc1`, the inhibition is inactive: -6.88%.
